Data as given in article PMC6758638.
These are yes or no findings as the source states them, for the method shown. Binding seen in cells or lysates may run through a third protein. Here binding means that the protein was enriched with, or labelled near, the bait; the list need not be complete.

Sequences of proteins named here, by UniProt entry; tags and fusion partners are left off.
UniProt P18272: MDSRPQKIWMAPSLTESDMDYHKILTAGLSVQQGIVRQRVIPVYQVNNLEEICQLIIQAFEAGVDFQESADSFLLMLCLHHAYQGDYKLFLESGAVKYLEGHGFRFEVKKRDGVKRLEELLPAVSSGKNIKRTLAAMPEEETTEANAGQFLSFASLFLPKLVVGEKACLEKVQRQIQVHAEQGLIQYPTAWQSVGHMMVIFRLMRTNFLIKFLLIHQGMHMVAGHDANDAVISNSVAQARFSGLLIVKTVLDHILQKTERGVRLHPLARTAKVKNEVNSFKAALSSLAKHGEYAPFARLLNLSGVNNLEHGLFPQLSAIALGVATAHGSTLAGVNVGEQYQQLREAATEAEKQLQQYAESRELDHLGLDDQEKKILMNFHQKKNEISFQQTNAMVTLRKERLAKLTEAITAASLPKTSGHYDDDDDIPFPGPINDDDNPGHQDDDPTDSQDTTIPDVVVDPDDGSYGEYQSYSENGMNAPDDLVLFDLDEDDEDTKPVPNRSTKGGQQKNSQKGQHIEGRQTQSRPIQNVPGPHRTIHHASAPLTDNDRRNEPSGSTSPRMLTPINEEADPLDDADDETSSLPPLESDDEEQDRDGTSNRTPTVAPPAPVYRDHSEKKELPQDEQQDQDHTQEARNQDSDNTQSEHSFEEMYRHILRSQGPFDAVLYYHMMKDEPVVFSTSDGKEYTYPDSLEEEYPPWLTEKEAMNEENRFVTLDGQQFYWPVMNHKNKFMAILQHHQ
UniProt Q9NR30: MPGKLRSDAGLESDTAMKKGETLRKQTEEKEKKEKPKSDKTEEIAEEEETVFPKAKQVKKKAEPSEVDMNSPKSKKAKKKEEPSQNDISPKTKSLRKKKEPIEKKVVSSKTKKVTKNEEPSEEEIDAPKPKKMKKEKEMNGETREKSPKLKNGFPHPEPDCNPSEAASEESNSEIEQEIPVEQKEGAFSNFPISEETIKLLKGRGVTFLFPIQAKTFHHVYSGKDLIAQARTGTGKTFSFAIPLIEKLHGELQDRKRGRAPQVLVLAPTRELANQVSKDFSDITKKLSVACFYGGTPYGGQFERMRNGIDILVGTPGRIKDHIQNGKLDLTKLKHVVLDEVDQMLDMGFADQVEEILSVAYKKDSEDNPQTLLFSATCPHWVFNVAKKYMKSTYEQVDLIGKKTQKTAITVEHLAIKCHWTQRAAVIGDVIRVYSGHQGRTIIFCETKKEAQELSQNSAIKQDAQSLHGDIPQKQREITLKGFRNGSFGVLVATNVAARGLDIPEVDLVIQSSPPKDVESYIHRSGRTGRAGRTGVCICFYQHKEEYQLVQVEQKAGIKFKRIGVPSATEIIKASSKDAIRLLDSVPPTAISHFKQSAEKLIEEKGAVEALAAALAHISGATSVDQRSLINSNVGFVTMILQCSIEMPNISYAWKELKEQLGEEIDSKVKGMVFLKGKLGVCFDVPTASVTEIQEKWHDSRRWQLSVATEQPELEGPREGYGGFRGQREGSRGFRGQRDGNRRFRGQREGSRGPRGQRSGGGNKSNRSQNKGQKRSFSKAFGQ
UniProt O00571: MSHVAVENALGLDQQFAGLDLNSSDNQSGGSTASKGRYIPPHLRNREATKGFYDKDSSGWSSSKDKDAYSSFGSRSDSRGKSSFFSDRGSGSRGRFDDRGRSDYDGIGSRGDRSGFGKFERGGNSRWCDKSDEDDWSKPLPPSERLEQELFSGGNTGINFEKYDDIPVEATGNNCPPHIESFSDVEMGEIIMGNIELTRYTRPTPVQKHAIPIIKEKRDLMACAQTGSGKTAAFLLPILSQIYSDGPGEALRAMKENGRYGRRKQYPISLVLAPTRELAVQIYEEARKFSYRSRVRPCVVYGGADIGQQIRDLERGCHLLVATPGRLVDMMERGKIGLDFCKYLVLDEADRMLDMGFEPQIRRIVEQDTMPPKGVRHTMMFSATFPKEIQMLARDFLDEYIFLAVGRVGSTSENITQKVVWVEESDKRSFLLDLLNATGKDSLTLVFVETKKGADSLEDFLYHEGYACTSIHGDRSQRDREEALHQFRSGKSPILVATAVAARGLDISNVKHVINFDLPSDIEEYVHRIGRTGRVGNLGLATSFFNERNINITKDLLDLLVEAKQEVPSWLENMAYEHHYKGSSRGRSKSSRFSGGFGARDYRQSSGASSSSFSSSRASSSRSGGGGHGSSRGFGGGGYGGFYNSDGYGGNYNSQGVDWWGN
UniProt Q9BXS5: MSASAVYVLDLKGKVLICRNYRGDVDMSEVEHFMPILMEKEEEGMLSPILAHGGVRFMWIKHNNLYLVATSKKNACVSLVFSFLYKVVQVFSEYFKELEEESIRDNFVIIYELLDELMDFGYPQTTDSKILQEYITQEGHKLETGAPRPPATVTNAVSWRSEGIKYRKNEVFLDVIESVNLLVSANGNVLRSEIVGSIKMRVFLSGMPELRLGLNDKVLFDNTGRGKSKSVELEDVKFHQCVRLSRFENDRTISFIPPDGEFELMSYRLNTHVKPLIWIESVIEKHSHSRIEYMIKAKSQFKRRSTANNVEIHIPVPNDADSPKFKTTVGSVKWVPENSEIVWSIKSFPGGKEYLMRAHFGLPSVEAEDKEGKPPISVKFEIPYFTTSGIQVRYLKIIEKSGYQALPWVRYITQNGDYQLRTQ
UniProt P11940: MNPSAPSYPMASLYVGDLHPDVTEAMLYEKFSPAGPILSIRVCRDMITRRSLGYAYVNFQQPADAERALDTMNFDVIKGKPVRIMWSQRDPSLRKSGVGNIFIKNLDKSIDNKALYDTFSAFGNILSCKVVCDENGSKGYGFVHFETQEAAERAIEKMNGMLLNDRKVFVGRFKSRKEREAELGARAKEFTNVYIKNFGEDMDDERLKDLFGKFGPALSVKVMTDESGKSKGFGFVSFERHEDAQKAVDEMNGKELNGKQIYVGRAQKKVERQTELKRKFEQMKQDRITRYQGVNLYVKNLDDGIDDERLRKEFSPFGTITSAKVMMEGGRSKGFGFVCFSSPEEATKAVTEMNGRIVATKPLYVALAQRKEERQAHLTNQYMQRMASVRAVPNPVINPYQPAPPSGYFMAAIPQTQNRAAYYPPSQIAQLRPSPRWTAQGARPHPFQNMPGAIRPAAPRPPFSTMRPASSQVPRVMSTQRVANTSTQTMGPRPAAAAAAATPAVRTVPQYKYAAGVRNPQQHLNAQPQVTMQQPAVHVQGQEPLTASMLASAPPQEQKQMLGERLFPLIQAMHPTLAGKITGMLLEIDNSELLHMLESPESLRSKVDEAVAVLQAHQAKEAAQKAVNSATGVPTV

B1: SET and MYND domain-containing protein 3, endogenous (protein, UniProt Q9H7B4 1-428)
chain: MEPLKVEKFATAKRGNGLRAVTPLRPGELLFRSDPLAYTVCKGSRGVVCDRCLLGKEKLMRCSQCRVAKYCSAKCQKKAWPDHKRECKCLKSCKPRYPPDSVRLLGRVVFKLMDGAPSESEKLYSFYDLESNINKLTEDKKEGLRQLVMTFQHFMREEIQDASQLPPAFDLFEAFAKVICNSFTICNAEMQEVGVGLYPSISLLNHSCDPNCSIVFNGPHLLLRAVRDIEVGEELTICYLDMLMTSEERRKQLRDQYCFECDCFRCQTQDKDADMLTGDEQVWKEVQESLKKIEELKAHWKWEQVLAMCQAIISSNSERLPDINIYQLKVLDCAMDACINLGLLEEALFYGTRTMEPYRIFFPGSHPVRGVQVMKVGKLQLHQGMFPQAMKNLRLAFDIMRVTHGREHSLIEDLILLLEECDANIRAS

Target: C-terminal HA-tagged Zaire ebolavirus (strain Mayinga) nucleoprotein (Zaire ebolavirus (strain Mayinga)) (UniProt P18272)
Assay: affinity purification with mass spectrometry

Molecule	binding
RNA helicase DDX21 (from UniProt Q9NR30 1-783)	binds
RNA helicase DDX3X (from UniProt O00571 1-662)	binds
AP1M1, a subunit of adaptor protein complex-1 (from UniProt Q9BXS5 1-423)	binds
poly-(A)-binding protein PABPC1 (from UniProt P11940 1-636)	binds
B1	binds
